# Laboratory results as given in PubChem BioAssay AID493130 (Broad Institute, 2011).
# Inconclusive results, whose numbers are uncertain, are shown.
# Test system: POS-1 (Caenorhabditis elegans) binding to mex-3 RNA
# Assay: inhibitors of POS-1/mex-3 RNA binding, dose response, counter-screen for MEX-5 RNA-binding inhibitor project, biochemical, fluorescence polarization, cherry-picked samples, set 2 (AID 493130);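 also: POS-1 as maltose binding protein fusion made in E. coli with FITC RNA; 0% = DMSO neutral wells and -100% = excess unlabeled mex3 competitor RNA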
# Details: POS-1/mex-3 RNA fluorescence polarization, 1 h; at 10 µM (top of the series);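 active = signal-lowering compounds whose fitted half-maximal concentration is at most ten times their highest tested dose; inconclusive = flat fit between -30 and -70%, or poor fit; inactive = flat within 30%, signal rising, or potency beyond limit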
row,Compound,"activity change, negative = inhibition"
1,N#CC(C#N)=NNc1ccc(S(N)(=O)=O)cc1,inconclusive: -106%
2,CCOc1ccc2nc(N=Nc3c(O)[nH]c(=O)[nH]c3=O)sc2c1,inconclusive: -56.3%
3,CN1/C(=C\C=C2C(=O)NC(=O)NC2=O)C(C)(C)c2ccccc21,inconclusive: -9.89%
